Test results published in patent US20060242739A1, “Plant nucleotide-sugar pyrophosphatase/phosphodiesterase (nppase), method of obtaining same and use of same in the production of assay devices and in the production of transgenic plants” (Universidad Publica De Navarra, priority 2002, published 2006).

B1: NPPase: plant nucleotide pyrophosphatase/phosphodiesterase, soluble 70-kDa isoform purified from barley leaves (protein)
chain: MVSRKRGGGGGVAMAVAMLLAAASASRPSSSLEGFQPLSKIAVHKATVDLHGSAFVSATPALLGDQGEDTEWVTVKYGWANPSADDWIAVFSPADFISGSCPNPSRYPDEPLLCTAPIKYQFANYSANYVYWGKGSIRFQLINQRYDFSFALFTGGLENPKLVAVSEAISFKNPKAPVYPRLAQGKSYDEMTVTWTSGYDISEAYPFVEWGMVVAGAAAPTRTAAGTLTFNRGSMCGDPDRTVGWRDPGFIHTAFLRDLWPNKEYYYKIGHELSDGSIVWGKQYTFRAPPFPGQNSLQRIIVFGDMGKAERDGSNEFANYQPGSLNTTDRLVEDLDNYDIVFHIGDLPYANGYISQWDQFTAQVAPITAKKPYMIASGNHERDWPNTGGFFDVKDSGGECGVPAETMYYYPAENRANFWYKVDYGMFRFCIADSEHDWREGTDQYKFIEQCLSTVDRKHQPWLIFAAHRVLGYSSNWWYADQQSFEEPEGRESLQRLWQRHRVDVAFFGHVHNYERTCPMYQSQCVSGERRRYSGTMNGTIFVVAGGGGSHLSDYTSAIPKWSVFRDRDFGFVKLTAFNHSSLLFEYKKSSDGKVYDSFTVERDYRDVLSCVHDSCLPTTLAS
Question: For B1, which “Keq′ of the reaction” value is on record?
Answer: 110
